Reference: PubChem BioAssay AID652243 (Drosophila RNAi Screening Center, 2013)
Assay: 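Fly genes required for human androgen receptor driven transcription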 (primary screen). Cells: Drosophila S2R+ cells. Knock-down reagent: long dsRNA against Drosophila genes. Time to read-out: 72 h (48 h, then 24 h hormone). Challenge: synthetic androgen R1881 at 10 nM for 24 h. Read-out: 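Per-well raw luminescence of the androgen-driven firefly reporter and of the Renilla control, two replicates each, without normalisation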. Direction: firefly reporter light: higher = more light from androgen-responsive reporter; Renilla control light: higher = more constitutive control signal (cell number, transfection). Rule for the call: 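Hit when the log firefly-to-Renilla ratio dropped or increased by a fixed fold versus the mean of GFP or LacZ controls across duplicate plates; lowering cut given as 1.5 and as 3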. Meaning of the calls: active = hit: reporter lowered or raised; inactive = no hit.
In all, the deposit lists about 24,000 reagents; below is a random part of those with a known target gene and a result. Of all reagents, 246 (1%) are marked active. 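Plates not normalised; calls are printed but the firefly/Renilla ratio behind them is not deposited; fold cut for lowering reported inconsistently.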 Raw values vary from plate to plate and are shown uncorrected. Reagents against one gene are numbered here. Not given: the amount of reagent.

Gene	reagent no.	firefly reporter light, replicate 1	firefly reporter light, replicate 2	Renilla control light, replicate 1	Renilla control light, replicate 2	call
upd3	1	7.46e5	6.99e5	3.76e6	3.22e6	inactive
upd3	2	6.27e5	4.64e5	4.12e6	3.30e6	inactive
upd3	3	6.03e5	6.39e5	1.71e6	1.69e6	inactive
CG13743	1	9.86e5	1.36e6	1.36e6	2.02e6	inactive
CG13743	2	1.03e6	1.02e6	9.37e5	1.04e6	inactive
CG13743	3	7.26e5	8.25e5	1.92e6	2.20e6	inactive
CG13659	1	2.29e5	2.78e5	2.25e6	2.91e6	inactive
CG13659	2	7.95e5	9.45e5	1.28e6	1.28e6	inactive
Tnks	1	1.77e5	1.65e5	1.60e6	1.60e6	inactive
CCHa2-R	1	3.43e5	3.00e5	2.19e6	1.65e6	inactive
CCHa2-R	2	2.66e5	3.31e5	2.45e6	2.44e6	inactive
Or23a	1	1.14e6	1.09e6	1.76e6	1.85e6	inactive
Nufip	1	97682	50308	6.42e5	3.25e5	inactive
Cdk8	1	3.88e5	5.48e5	1.05e6	1.35e6	inactive
Cdk8	2	2.59e5	2.07e5	1.89e6	1.54e6	active
OtopLc	1	1.95e5	3.00e5	2.02e6	1.83e6	inactive
OtopLc	2	34110	23226	5.33e5	6.22e5	inactive
OtopLc	3	2.13e5	2.41e5	3.59e6	2.95e6	inactive
OtopLc	4	7.71e5	7.90e5	7.71e5	7.12e5	inactive
OtopLc	5	1.24e6	1.03e6	9.58e5	6.95e5	inactive
OtopLc	6	3.15e5	7.07e5	4.07e5	1.02e6	inactive
esc	1	1.22e6	1.41e6	2.81e6	2.01e6	inactive
esc	2	5.32e5	3.68e5	1.45e6	1.02e6	inactive
Iris	1	8.52e5	1.02e6	1.57e6	1.37e6	inactive
CG2201	1	7.10e5	8.06e5	2.29e6	2.39e6	inactive
CG2201	2					inactive
Act88F	1	75062	77460	1.14e6	1.44e6	inactive
Act88F	2	7.33e5	7.37e5	9.45e5	8.91e5	inactive
Wbp2	1	9.92e5	1.09e6	8.21e5	8.43e5	inactive
CG13220	1	2.29e5	1.86e5	1.31e6	1.14e6	inactive
CG5388	1	1.10e5	90396	2.45e6	2.59e6	inactive
CG13123	1	1.26e5	1.08e5	1.05e6	9.67e5	inactive
CG33270	1	8.85e5	8.65e5	1.61e6	1.42e6	inactive
CG43333	1	7.07e5	8.69e5	8.37e5	9.58e5	inactive
CG43333	2	3.21e5	2.61e5	6.28e5	4.92e5	inactive
Prp6	1	3.96e5	2.79e5	3.18e6	2.93e6	inactive
Prp6	2	4.27e5	3.84e5	1.67e6	1.87e6	inactive
CG32121	1	90148	1.35e5	2.02e5	1.66e5	inactive
CG33093	1	4.25e5	4.97e5	2.92e6	3.81e6	inactive
Bap170	1	6.67e5	6.36e5	1.23e6	1.48e6	inactive
Bap170	2	5.34e5	5.58e5	2.36e6	3.52e6	inactive
Bap170	3	4.29e5	4.26e5	6.54e5	6.67e5	inactive
CG3419 (retired record)	1	2.44e5	6.55e5	1.16e6	1.12e6	inactive
CG3419 (retired record)	2	3.85e5	4.10e5	1.78e6	1.94e6	inactive
CG13606	1	2.34e5	2.26e5	2.90e6	3.10e6	inactive
Rpn9	1	32722	46785	2.65e5	2.58e5	inactive
Rpn9	2	2.20e5	2.47e5	4.31e5	4.47e5	inactive
CG30394	1	2.70e5	2.85e5	1.88e6	1.80e6	inactive
CG30394	2	3.02e5	3.37e5	1.12e6	1.38e6	inactive
Nct	1	72948	59695	5.60e5	3.84e5	inactive
stmA	1	5.57e5	7.25e5	1.43e6	1.40e6	inactive
stmA	2	7.27e5	6.73e5	2.66e6	1.76e6	inactive
AttD	1	3.30e5	3.15e5	1.90e6	2.72e6	inactive
scat	1	7.78e5	1.00e6	1.70e6	2.11e6	inactive
scat	2	4.08e5	3.28e5	8.68e5	5.83e5	inactive
CG18547	1	1.32e5	1.52e5	2.19e6	1.97e6	inactive
Surf1	1	87046	95831	1.19e6	1.20e6	inactive
Surf1	2	9.61e5	9.62e5	1.84e6	2.20e6	inactive

No new results follow: 6 of the entries above.
Gene	reagent no.	firefly reporter light, replicate 1	firefly reporter light, replicate 2	Renilla control light, replicate 1	Renilla control light, replicate 2	call
Rpn9	1	32722	46785	2.65e5	2.58e5	inactive
Rpn9	2	2.20e5	2.47e5	4.31e5	4.47e5	inactive
CG30394	1	2.70e5	2.85e5	1.88e6	1.80e6	inactive
CG30394	2	3.02e5	3.37e5	1.12e6	1.38e6	inactive
Nct	1	72948	59695	5.60e5	3.84e5	inactive
stmA	1	5.57e5	7.25e5	1.43e6	1.40e6	inactive
